At least one compound was matched to its structure with a doubt left.
Key:
[1] = tested on: DSS induced acute colitis; conditions: Example 1, compared with untreated DSS mice
Description: In one embodiment, IBD was induced in mice by add DSS into drink water for 7 days. […] (Cooper, S. et al., Clinic pathologic study of dextran sulfate sodium experimental murine colitis, Laboratory Investigation, vol. 69, no. 2, p. 238-249, 1993)
The mice were scarified at day 10th for anatomy and histology evaluations. […] Each of the above histological features was scored individually and added together which is then collectively expressed as “histological score”, for quantitative evaluation (Cooper, S. et al., above).
Male C57BL mice (8-10 weeks, 18-20 g) were grouped into control (drinking water only), DSS and DSS plus treatment groups (n=5). Acute colitis was induced by feeding mice with 2% (w/v) dextran sulfate sodium (DSS) (molecular mass 36-50 kDa) added to the drinking water given ad libitum for 7 days. At the end of seventh day, DSS was removed and animals received only drinking water for 2 days. The animals were euthanized for anatomical and histological examination at the tenth day after DSS ingestion. […]
Evaluation of disease symptoms and histological changes Disease activity index (DAI): Animals were monitored daily for weight, water/food consumption, morbidity, stool consistency and fecal blood. […] The colon length was recorded as an indicator of inflammation. […]

[2] = tested on: IMQ-induced Psoriasis-Like Skin lesions; assay: IMQ-induced psoriasis-like skin lesions; assay type: in vivo, mice; conditions: oral; R-salbutamol 0.5, 1, 2 mg/kg; Dexamethasone 1 mg/kg; compared with psoriasis group
Description: Mice were divided into control, psoriasis and psoriasis plus treatment groups, (n=8 in each group). Psoriasis were induced by topical application of imiquimod cream (62.5 mg) on shaved dorsal skin for seven consecutive days. Vaseline was used in control group. There were four treatment groups: three doses of R-salbutamol (R-Sal) (0.5 mg, 1 mg, 2 mg/kg) and Dexamethasone (1 mg/kg) as positive control. All the treatments and same volume of saline (in control group) were administered orally. In some experiment, R-bambuterol (long-last beta2 agonist) was used as an additional treatment group (n=3). Psoriasis Area Severity Index were used for evaluation. Each of the scores for erythema, scaling and skin thickness were measured separately and then group together as a calculative score. (FIG. 2)

## C[C@@H]1C[C@H]2[C@@H]3CCC4=CC(=O)C=C[C@]4(C)[C@@]3(F)[C@@H](O)C[C@]2(C)[C@@]1(O)C(=O)CO [DEX, Dexamethasone]
[1]
  colon histology (H&E), in words: some improvements
[2]
  Psoriasis Area Severity score: significantly reduced

Source: patent US20210393549A1, “New use of R-enantiomer of adrenergic beta 2 receptor agonists for treatment of inflammatory bowel disease and its extra intestinal manifestations” (priority 2018, published 2021)
